Earlier results on 1 compound are cited in patent US5334589A, “Quinolone carboxylic acid--metal ion--acid complexes” (Abbott Laboratories, priority 1992, dated 1994).

For this data set the following is noted: method of Preiss et al., European Patent Application No. 287 926; cited from earlier work.

Turning to `O=C(O)c1cn(C2CC2)c2cc(N3CCNCC3)c(F)cc2c1=O` [ciprofloxacin], the “stability of pharmacological solutions” value is reported as “stable pharmacological solutions”.
